Reference: PubChem BioAssay AID1439 (NMMLSC, 2008)
Screen size: about 220,000 compounds; about 770 (0.35%) were called active. The inconclusive results got no clear call from the source; some entries with a clear call stand among them for comparison. Cut-off read from the data, not from the text of the source: active = binding response below about 49% or above about 150%; inconclusive = no clear call, values can overlap the other calls; inactive = in between.

Sequences of proteins named here, by UniProt entry; tags and fusion partners are left off.
UniProt P09471, whole entry, looked up: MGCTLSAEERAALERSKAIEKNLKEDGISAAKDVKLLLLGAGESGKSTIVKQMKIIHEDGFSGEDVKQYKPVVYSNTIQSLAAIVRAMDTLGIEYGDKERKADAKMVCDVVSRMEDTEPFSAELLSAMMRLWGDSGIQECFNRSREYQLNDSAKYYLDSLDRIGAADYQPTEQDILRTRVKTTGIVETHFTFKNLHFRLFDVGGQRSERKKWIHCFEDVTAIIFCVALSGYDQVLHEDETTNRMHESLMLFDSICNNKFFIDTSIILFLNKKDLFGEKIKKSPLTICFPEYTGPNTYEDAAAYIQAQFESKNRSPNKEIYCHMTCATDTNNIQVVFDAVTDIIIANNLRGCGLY

biological target: Guanine nucleotide-binding protein G(o) subunit alpha (Homo sapiens) (UniProt P09471); experiment: RGS7-Galphao binding modulators, primary screen, biochemical, multiplexed bead flow cytometry (AID 1439); details: at 10 µM, actives lie on both sides;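 note: fluorescent Galphao held in activated GDP-AlF4 state binding bead-coupled RGS7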

SMILES	binding response (% of control)
S=C1NC[C@H](c2ccccc2)N1CCCCC1CCCCC1	inconclusive: 89%
C=CCNC(=O)c1ccc(Cn2c(=S)[nH]c3cc4c(cc3c2=O)OCO4)cc1	inactive: 107%
CN(C(=O)COC(=O)c1ccc(Cl)cc1N)C1CCCCC1	inconclusive: 109%
Cc1cc2nc(C3CCN(C(=S)NCCCOC(C)C)CC3)[nH]c2cc1C	inactive: 103%
Cc1ccnc(N/C=C(/NC(=O)c2ccccc2)C(=O)N/N=C\c2ccc(Cl)cc2)n1	inconclusive: 119%
O=C1C=C(O)C(n2cncn2)C(c2cc(F)ccc2F)C1 (stereo unspecified)	inconclusive: 94.2%
COCCCNc1nc2c(-c3cccc(C(F)(F)F)c3)nnn2c2ccccc12	inconclusive: 92.1%
O=C1NC(c2ccccc2)=C(c2ccccc2)C1=O	inactive: 109%
NS(=O)(=O)c1ccc(NC(=S)NCc2ccco2)cc1	inactive: 129%
CCOc1ccc(N(CC(=O)N2CCC(Cc3ccccc3)CC2)S(C)(=O)=O)cc1	inactive: 101%
O=C(Nc1ccc(COc2ccccc2)cc1)Oc1ccccc1N1CCOCC1	inconclusive: 81.7%
Cc1ccc(S(=O)(=O)Nc2cccc3ncccc23)cc1	inconclusive: 81.3%
COCCOC(=O)c1c(NC(=O)CNc2ccc(C)c(F)c2)sc(C(N)=O)c1C	inconclusive: 13.6%
O=C1C2CC=CCC2C(=O)N1Cc1nnc(-c2ccc(Cl)cc2)o1 (stereo unspecified)	inconclusive: 101%
CCC(CC)C(=O)Nc1cc(Cl)ccc1C	inconclusive: 94.1%
COc1cc(C(=O)NC2CCCC2)c(Br)c(OC)c1OC	inconclusive: 106%
CC1(C)CC(=O)C(C2C3=C(CC(C)(C)CC3=O)Oc3ccccc32)C(=O)C1 (stereo unspecified)	inconclusive: 105%
CC(C)Cn1c2c(c(O)c(C(=O)Nc3nc4ccccc4s3)c1=O)CCCC2	inconclusive: 116%
Cc1c(-c2ccccc2)oc2c(C(=O)N3CCN(c4ccccc4F)CC3)cccc2c1=O	inactive: 105%
CC(C)(C)c1cccc(P(=O)(c2ccccc2)c2ccccc2)c1O	inconclusive: 89.3%
N#Cc1c(C(F)(F)F)cc(-c2cccs2)nc1N1CCCCC1	inconclusive: 71.1%
O=C1N=c2ccc(Br)cc2=C1c1sc(=S)n(NS(=O)(=O)c2ccccc2)c1O	inactive: 95.9%
COc1cc(CN=Cc2c(O)n(Cc3ccccc3)c(=S)[nH]c2=O)cc(OC)c1	inconclusive: 92.8%

SMILES	binding response (% of control)
Cc1cccc(-n2c(C)cc(/C=C3\NC(=O)NC3=O)c2C)c1	inconclusive: 73.5%
CCOC(=O)C1=C(C)NC(=O)N(C(C)=O)C1c1ccc(Cl)cc1 (stereo unspecified)	inactive: 104%
CC1(C)COC2(OC1)C(=O)N(CN1CCOCC1)c1ccccc12	active: 252% [activator]
CN(CC(=O)NC(=O)NC(C)(C)C)CC(=O)Nc1ccccc1Cl	inconclusive: 70%
N/N=c1\sc2ccccc2n1-c1ccccc1	inactive: 104%
O=S(=O)(c1cnc(Cl)c(Cl)c1)N1CCc2ccccc21	inconclusive: 136%
Cc1cccc2nc(CSc3ncccc3C(=O)O)cn12	inconclusive: 117%
O=C(Cc1c(F)cccc1Cl)N1CCOCC1	inconclusive: 81.9%
CCOc1nc(NCCO)nc(Nc2ccc([N+](=O)[O-])cc2)n1	inactive: 107%
Cc1cccc(OCC(=O)OC2CCN(C)CC2)c1	inactive: 98.9%
CCOc1ccc2cc(C3CC(c4ccco4)=NN3S(C)(=O)=O)c(=O)[nH]c2c1 (stereo unspecified)	inconclusive: 109%
COCCC(=O)Nc1ccc2c(c1)CN(C(=O)CSC)CC2	inconclusive: -192%
CCOC(=O)N1CCN(C(=O)c2cc3c(s2)-c2ccc(Cl)cc2S(=O)(=O)C3)CC1	inconclusive: 83.3%
O=C(N=Nc1c(O)[nH]c2ccccc12)c1cc(NS(=O)(=O)c2cccs2)cc(NS(=O)(=O)c2cccs2)c1	inconclusive: 91%
CCN(CC)S(=O)(=O)c1ccc(-c2nnc(SCc3nnc(-c4ccccc4)o3)o2)cc1	inactive: 94.3%
O=[N+]([O-])c1cc(Cl)cc(/C=N/NC(=S)Nc2ccc(S(=O)(=O)N3CCOCC3)cc2)c1O	inconclusive: 74.4%
N#Cc1ccccc1S(=O)(=O)Nc1ccc2c(c1)C(=O)OC2	inconclusive: 88%
COc1ccc(/C=C2\SC(=O)N(CCn3cnnn3)C2=O)cc1	inconclusive: 105%
CC(C)c1ccc(/C=C2\SC(N3CCOCC3)=NC2=O)cc1	inconclusive: 105%
S=c1[nH]nc(-c2ccncc2)n1/N=C/c1ccccc1Cl	inconclusive: -225%
CN(C)C(=O)c1cn(-c2ccc(Cl)cc2)c(=O)c2ccccc12	inconclusive: 113%
CN(c1ccccc1)S(=O)(=O)c1ccc(C(=O)NCc2cccs2)cc1	inconclusive: 115%
COc1ccc(C2N(c3ccc4c(c3)OCCO4)C(=O)C2(F)F)cc1OC (stereo unspecified)	inconclusive: 79%

SMILES	binding response (% of control)
COc1cc2c(cc1/C=C/C(=O)O)OC(C)C2 (stereo unspecified)	inconclusive: 112%
CNCCOc1ccccc1OC(C)C	inconclusive: 88.4%
CC(C)(C)c1ccc(C(=O)Nc2ccc(S(N)(=O)=O)cc2)cc1	inconclusive: 103%
C=CCOC(=O)c1cc(-c2ccc(/C=C3\C(=O)NC(=O)C(C#N)=C3C)o2)ccc1Cl	inactive: 83%
Nc1nnc(-c2cc3c(ccc4ccccc43)oc2=O)s1	inactive: 102%
COC(=O)c1sc(SC)c(-c2ccon2)c1C	inconclusive: 82.7%
COc1ccc(NC(=O)C2CCOC(C)(C)C2)cc1 (stereo unspecified)	inconclusive: 29.6%
CSc1ccccc1C(=O)NCCOc1cccc(C)c1	inconclusive: 47%
COc1ccccc1CN(C)CC(=O)Nc1ccc(Cl)cc1F	inconclusive: 108%
COc1ccc(CCN(C)C2CC(=O)N(c3ccccc3)C2=O)cc1OC (stereo unspecified)	inconclusive: 116%
COc1ccc(CCn2c(-c3ccc(F)cc3)nc3c(c(=O)c4ccccc4n3C)c2=O)cc1OC	inconclusive: -113%
Cc1ccc(S(=O)(=O)N(C)c2ccccc2C(=O)Nc2ccc3c(c2)OCCO3)cc1	inconclusive: 104%
CCC(C)/C(C)=N/NC(=O)CSc1nc2ccccc2[nH]1 (stereo unspecified)	inconclusive: 95%
COc1ccc(CC(=O)Nc2ccccc2C(=O)N2CCOCC2)cc1	inactive: 91.6%
CCCCCc1cc(=O)oc2c(C(CCN3CCCCC3)c3ccc(OC)cc3)c(OC)cc(OC)c12 (stereo unspecified)	inconclusive: 101%
O=c1c2ccccc2nnn1COc1ccc(F)cc1Cl	inconclusive: 69.7%
N=C(N)SCc1cn(-c2ccccc2)nc1-c1ccc(Br)cc1	inconclusive: 92.6%
Fc1ccc(N2CCN(Cc3cn[nH]c3-c3ccccc3)CC2)cc1	inconclusive: 391%
O=C(Cn1nnc2ccccc2c1=O)Nc1cccc(S(=O)(=O)N2CCOCC2)c1	inconclusive: 107%
CSc1ccccc1C(=O)Nc1ccc2c(c1)OCO2	inconclusive: 99.9%
Cc1nc(SCC(N)=O)c(C#N)c(C)c1C	inconclusive: 86.2%
N#Cc1cccc(C(c2nnnn2Cc2ccccc2)N2CCCC2)c1 (stereo unspecified)	inactive: 107%
CCCCC(CCC(=O)O)(C(=O)OCC)c1csc(Nc2ccc(OCC)cc2)n1 (stereo unspecified)	inconclusive: 125%

4 of the compounds above, with each value named.
COc1cc2c(cc1/C=C/C(=O)O)OC(C)C2 (stereo unspecified)
  binding response (% of control): inconclusive: 112%
CNCCOc1ccccc1OC(C)C
  binding response (% of control): inconclusive: 88.4%
O=c1c2ccccc2nnn1COc1ccc(F)cc1Cl
  binding response (% of control): inconclusive: 69.7%
O=C(Cn1nnc2ccccc2c1=O)Nc1cccc(S(=O)(=O)N2CCOCC2)c1
  binding response (% of control): inconclusive: 107%

Next part:

SMILES	binding response (% of control)
CCCCc1ccc(N/C(N)=N/c2nc(C)cc(C)n2)cc1	inconclusive: 119%
Cc1ccc(S(=O)(=O)/N=C(\N)c2ccc(F)cc2)cc1	inconclusive: 103%
Cn1cccc1Cc1nnc(SCC(=O)NCCc2ccccc2)n1C	inactive: 102%
C#CCOCCOCCOCCNc1nc(N2CCN(C(=O)[C@H](Cc3ccc(O)cc3)n3cc([C@@H](N)C(C)CC)nn3)CC2)nc(N2CCN(C(=O)[C@H](Cc3cc4ccccc4[nH]3)n3cc([C@@H](N)Cc4ccc(O)cc4)nn3)CC2)n1 (stereo partly specified)	inconclusive: 55.4%
C/C(=N\Nc1nc2ccc(Cl)cc2o1)c1ccccc1	inconclusive: 100%
O=C(c1cnc2ccc3ccccc3c2c1)c1cc(F)ccc1O	inconclusive: 115%
COc1ccc(NC(=S)NC2CCCCCC2)c(OC)c1	inactive: 106%
COc1ccc(C(=O)Nc2ccc(N3CCC(C)CC3)cc2)cc1Br	inconclusive: 99.5%
COc1ccccc1NC(=O)CCCc1c[nH]c2ccccc12	active: 312% [activator]
Cc1cc(OCC(=O)c2cccc(C(F)(F)F)c2)n2cnnc2n1	inconclusive: 254%
COc1ccc(OC)c(/C=N/NC(=O)Cn2ccnc2C)c1	inconclusive: 65.4%
O=S(=O)(c1c(Cl)sc(Cl)c1Br)N1CCCC1	inconclusive: 167%
O=[N+]([O-])c1ccccc1NC1CCN(Cc2ccccc2)CC1	inconclusive: 182%
COc1ccccc1NC(=O)N1CCN(C)CC1	inactive: 95.6%
CCN(CC)C(=O)c1ccc(-c2nnc(OC)c3ccccc23)cc1	inconclusive: 105%
COc1ccccc1NC(=O)CN(Cc1ccco1)C(=O)c1ccc(Cl)nc1	inconclusive: 106%
Cc1cc(C)c2nc(-c3ccccn3)cc(C(=O)Nn3cnnc3)c2c1	inconclusive: 84.7%
Cc1cc(C)cc(NC(=O)N2CCCN(c3ncccc3[N+](=O)[O-])CC2)c1	inconclusive: 115%
C#CC1(NC(=O)NC(=O)c2c(F)cccc2F)CCCCC1	inconclusive: 89.5%
CCOC(=O)c1c(CC(C)C)csc1N	inconclusive: 110%
Cc1cccc(CSc2nnc(CCCCCNC(=O)OC(C)(C)C)o2)c1	inconclusive: 69.3%
CCC(C)(C)NC(=O)C(c1cccn1C)N(Cc1ccc(OC)cc1)C(=O)Cn1nnc2ccccc21 (stereo unspecified)	inactive: 98.4%
